# PubChem BioAssay AID1259254 – NCATS, 2017
# Test: 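Gene knock-downs that lead to re-replication, shown by excess G2 DNA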 (primary screen)
# System: human HCT116 colorectal cancer cells
# Reagents: single siRNA against human genes
# Duration: 3 days
# Measurement: 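Nuclei stained with Hoechst and imaged; cell-cycle phase assigned by DNA content; G2 share scaled per plate, non-targeting siRNA 0%, GMNN siRNA 100%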
# Scale: G2 robust z-score and G2 cells, % of GMNN control: higher = more G2 cells, more excess DNA replication; raw share of cells in G2: higher = larger share of cells with G2 DNA content
# Hit rule: 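Active siRNAs have a G2 robust z of 5 or more median absolute deviations over the median, which in these data means about 38% or higher of GMNN control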
# The deposit covers about 59,000 reagents; this is a part drawn at random. In the full data, about 1,550 (2.6%) were called active. 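G2 share is only a proxy for re-replication; each gene was hit by three separate siRNAs, and active genes were retested.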 The raw values are shown without normalisation. The numbers tell different reagents against one gene apart. Not stated in the record: the amount of reagent.
gene,siRNA no.,G2 robust z-score,"G2 cells, % of GMNN control",raw share of cells in G2 (%),call
EXOC2,1,0.0937,3.63,5.92,inactive
EXOC2,2,0.196,4.35,5.94,inactive
EXOC2,3,-0.401,0.147,3.18,inactive
DMRT3,1,0.898,9.28,9.49,inactive
DMRT3,2,3.04,24.3,13,inactive
DMRT3,3,0.732,8.12,7.17,inactive
DENND2C,1,-0.43,-0.0589,3.58,inactive
DENND2C,2,0.0288,3.17,4.02,inactive
DENND2C,3,-0.525,-0.723,2.53,inactive
HOXC10,1,1.09,10.7,8.92,inactive
HOXC10,2,-1.31,-6.24,3.31,inactive
HOXC10,3,0.209,4.44,5.83,inactive
DNAJC5B,1,-0.374,0.337,3.21,inactive
DNAJC5B,2,0.734,8.13,5.99,inactive
DNAJC5B,3,-0.465,-0.307,3.42,inactive
F5,1,-0.671,-1.76,4.95,inactive
F5,2,0.0367,3.23,6.05,inactive
F5,3,4.77,36.5,17.5,inactive
CPM,1,-0.456,-0.243,3.82,inactive
CPM,2,0.176,4.2,7.02,inactive
CPM,3,-0.072,2.46,5.78,inactive
PTPN6,1,-1,-4.07,3.47,inactive
PTPN6,2,-0.579,-1.11,3.97,inactive
PTPN6,3,3.45,27.3,11.7,inactive
RPL13P12,1,-0.236,1.31,5.19,inactive
RPL13P12,2,1.88,16.2,9.32,inactive
RPL13P12,3,1.24,11.7,8.5,inactive
KRTAP4-7,1,-1.39,-6.84,1.18,inactive
KRTAP4-7,2,0.047,3.3,4.03,inactive
KRTAP4-7,3,0.439,6.06,4.85,inactive
OSBP2,1,0.333,5.31,5.95,inactive
OSBP2,2,8.87,65.4,35.8,active
OSBP2,3,0.291,5.02,5.63,inactive
MUC16,1,0.163,4.11,5.74,inactive
MUC16,2,4.24,32.8,13.1,inactive
MUC16,3,1.07,10.5,4.89,inactive
EIF1P3,1,-0.435,-0.0903,3.64,inactive
EIF1P3,2,7.17,53.4,25.5,active
EIF1P3,3,-0.809,-2.73,2.48,inactive
OTUD6A,1,-0.5,-0.55,2.38,inactive
OTUD6A,2,-0.776,-2.49,3.24,inactive
OTUD6A,3,-0.522,-0.706,2.88,inactive
KATNAL2,1,0.601,7.2,8.43,inactive
KATNAL2,2,-0.559,-0.963,3.85,inactive
KATNAL2,3,4.17,32.3,16.7,inactive
IL7,1,-1.06,-4.48,3.98,inactive
IL7,2,-0.138,2,4.93,inactive
IL7,3,1.77,15.4,10.6,inactive

Reformatted: results already given
HOXC10 #3
- G2 robust z-score: 0.209
- G2 cells, % of GMNN control: 4.44
- raw share of cells in G2 (%): 5.83
- call: inactive

DNAJC5B #1
- G2 robust z-score: -0.374
- G2 cells, % of GMNN control: 0.337
- raw share of cells in G2 (%): 3.21
- call: inactive

DNAJC5B #2
- G2 robust z-score: 0.734
- G2 cells, % of GMNN control: 8.13
- raw share of cells in G2 (%): 5.99
- call: inactive

DNAJC5B #3
- G2 robust z-score: -0.465
- G2 cells, % of GMNN control: -0.307
- raw share of cells in G2 (%): 3.42
- call: inactive

F5 #1
- G2 robust z-score: -0.671
- G2 cells, % of GMNN control: -1.76
- raw share of cells in G2 (%): 4.95
- call: inactive

F5 #2
- G2 robust z-score: 0.0367
- G2 cells, % of GMNN control: 3.23
- raw share of cells in G2 (%): 6.05
- call: inactive
